Test results taken from publication PMC12077210, “Di-HAMP domains of a cytoplasmic chemoreceptor modulate nucleoid array formation and downstream signaling” (mBio, 2024).

Tests used:
Assay in all cases: EMSA
Conditions in all cases: EMSA: 50 mM Tris pH 7.4, 50 mM NaCl, 1 mM DTT, 10% glycerol, 25 C, 30 min, 0.5-2 uM DNA; recombinant protein; residues 1-417; protein details: C-terminal His6 (pHis17)
[1] = target: T1, FrzCD (EMSA/SEC-MALS) (Myxococcus xanthus) (UniProt P43500)
T1 sequence (looked up): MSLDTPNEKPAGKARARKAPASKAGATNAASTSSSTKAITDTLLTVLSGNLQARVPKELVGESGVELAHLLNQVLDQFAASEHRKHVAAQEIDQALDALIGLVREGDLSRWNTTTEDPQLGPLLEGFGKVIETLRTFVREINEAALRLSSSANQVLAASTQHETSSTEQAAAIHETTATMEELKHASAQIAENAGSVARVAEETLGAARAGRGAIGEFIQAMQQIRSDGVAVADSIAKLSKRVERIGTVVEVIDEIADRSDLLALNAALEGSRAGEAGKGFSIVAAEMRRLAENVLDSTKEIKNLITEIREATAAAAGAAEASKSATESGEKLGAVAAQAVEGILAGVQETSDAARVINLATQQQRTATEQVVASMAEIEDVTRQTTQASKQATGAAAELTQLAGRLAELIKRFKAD

[2] = target: T2, FrzCDΔH1ΔH2 (EMSA) del32-136 (Myxococcus xanthus) (UniProt P43500)
T2 sequence (looked up): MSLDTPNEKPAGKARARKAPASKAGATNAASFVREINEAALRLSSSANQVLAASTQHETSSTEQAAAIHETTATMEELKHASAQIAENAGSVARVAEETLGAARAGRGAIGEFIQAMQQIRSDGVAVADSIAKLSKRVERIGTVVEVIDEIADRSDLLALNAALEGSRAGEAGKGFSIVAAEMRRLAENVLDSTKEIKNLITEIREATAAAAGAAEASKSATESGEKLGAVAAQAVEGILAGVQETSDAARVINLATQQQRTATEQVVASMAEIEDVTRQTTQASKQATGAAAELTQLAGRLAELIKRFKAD

[3] = target: T3, FrzCDΔH2 (EMSA/SEC-MALS) del84-136 (Myxococcus xanthus) (UniProt P43500)
T3 sequence (looked up): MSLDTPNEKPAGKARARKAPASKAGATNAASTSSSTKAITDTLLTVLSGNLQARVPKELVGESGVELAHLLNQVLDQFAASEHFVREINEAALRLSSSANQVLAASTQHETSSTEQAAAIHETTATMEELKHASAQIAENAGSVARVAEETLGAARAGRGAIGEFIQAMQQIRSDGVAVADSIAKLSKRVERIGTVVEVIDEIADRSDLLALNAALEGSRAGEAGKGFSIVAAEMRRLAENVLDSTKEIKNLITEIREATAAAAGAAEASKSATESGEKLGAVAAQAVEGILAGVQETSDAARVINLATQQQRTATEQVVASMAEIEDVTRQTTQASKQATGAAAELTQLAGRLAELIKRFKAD

[4] = target: T4, FrzCDΔH1 (EMSA) del32-83 (Myxococcus xanthus) (UniProt P43500)
T4 sequence (looked up): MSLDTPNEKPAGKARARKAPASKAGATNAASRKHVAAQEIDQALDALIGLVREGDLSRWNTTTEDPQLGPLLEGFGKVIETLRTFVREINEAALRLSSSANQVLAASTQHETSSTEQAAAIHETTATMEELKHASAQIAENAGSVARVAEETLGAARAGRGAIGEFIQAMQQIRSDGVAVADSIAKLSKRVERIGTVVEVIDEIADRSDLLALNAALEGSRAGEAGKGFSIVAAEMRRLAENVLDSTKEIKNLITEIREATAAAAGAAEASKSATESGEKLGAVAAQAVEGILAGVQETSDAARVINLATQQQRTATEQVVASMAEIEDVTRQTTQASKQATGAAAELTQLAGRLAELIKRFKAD

Sequence: TAATACGACTCACTATAGGG (double strand) [20 bp DNA]
- binding result [1]: binds

Sequence: CTCACTATAGGG (double strand) [12 bp DNA]
- binding result [1]: binds

Sequence: GTCACCTGCTCTAGCTAATAGACTGAGCCGAGGTG (double strand) [35 bp DNA]
- binding result [1]: binds

Sequence: CTTGCAGTAGAGCTGACCATGATTACGCCATCAGCAGCTCCAGGTCGTACCTCCAGCTACCAATCCCCG (double strand) [69 bp DNA]
- binding result [2]: binds
- binding result [1]: binds
- binding result [3]: binds
- binding result [4]: binds

The exact form of at least one protein or probe is not confirmed. At least one verdict was read from the data and is not stated in words by the source. Where a protein sequence is shown, tags need not be part of it.
